## Drug screen on melanoma cell lines: cell count

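The test systems are human melanoma cell lines, treated with a pair of drugs for 72 h and then stained and imaged. Values are the number of DAPI-stained nuclei as a percentage of the DMSO control: 100 is no effect, lower means fewer cells. Concentrations were fixed for each drug; these are the lower of two levels, a fifth of the higher. The file gives one value for each pair and line, without errors, so small differences may be noise.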 An unselected part of the screen is shown.

All values are for the listed drug together with vincristine (0.1 nM): CC[C@]1(O)C[C@H]2CN(CCc3c([nH]c4ccccc34)[C@@](C(=O)OC)(c3cc4c(cc3OC)N(C=O)[C@H]3[C@@](O)(C(=O)OC)[C@H](OC(C)=O)[C@]5(CC)C=CCN6CC[C@]43[C@@H]65)C2)C1

Drugs:
VX-702 (400 nM): NC(=O)c1ccc(N(C(N)=O)c2c(F)cccc2F)nc1-c1ccc(F)cc1F
STA-4783 (6 nM): CN(NC(=O)CC(=O)NN(C)C(=S)c1ccccc1)C(=S)c1ccccc1
OSU-03012 (1000 nM): NCC(=O)Nc1ccc(-n2nc(C(F)(F)F)cc2-c2ccc3c(ccc4ccccc43)c2)cc1
NVP-BEZ235 (4 nM): Cn1c(=O)n(-c2ccc(C(C)(C)C#N)cc2)c2c3cc(-c4cnc5ccccc5c4)ccc3ncc21
AZD7762 (20 nM): NC(=O)Nc1cc(-c2cccc(F)c2)sc1C(=O)N[C@H]1CCCNC1
stibogluconate (2000 nM): O=C(O)[C@@H]1[O][Sb](=[O])([O][Sb]2(=[O])[O][C@H]([C@H](O)CO)[C@H](O)[C@H](C(=O)O)[O]2)[O][C@H]([C@H](O)CO)[C@@H]1O (stereo not given in full)
docetaxel (0.1 nM): CC(=O)O[C@@]12CO[C@@H]1C[C@H](O)[C@@]1(C)C(=O)[C@H](O)C3=C(C)[C@@H](OC(=O)[C@H](O)[C@@H](NC(=O)OC(C)(C)C)c4ccccc4)C[C@@](O)([C@@H](OC(=O)c4ccccc4)[C@H]21)C3(C)C
BMS-536924 (200 nM): Cc1cc(N2CCOCC2)cc2[nH]c(-c3c(NC[C@@H](O)c4cccc(Cl)c4)cc[nH]c3=O)nc12
midostaurin (80 nM): CO[C@@H]1[C@H](N(C)C(=O)c2ccccc2)C[C@H]2O[C@]1(C)n1c3ccccc3c3c4c(c5c6ccccc6n2c5c31)C(=O)NC4
bexarotene (2000 nM): C=C(c1ccc(C(=O)O)cc1)c1cc2c(cc1C)C(C)(C)CCC2(C)C
tamatinib (400 nM): COc1cc(Nc2ncc(F)c(Nc3ccc4c(n3)NC(=O)C(C)(C)O4)n2)cc(OC)c1OC
GSK650394 (160 nM): O=C(O)c1ccc(-c2c[nH]c3ncc(-c4ccccc4)cc23)cc1C1CCCC1
SU6656 (400 nM): CN(C)S(=O)(=O)c1ccc2c(c1)/C(=C/c1cc3c([nH]1)CCCC3)C(=O)N2
nilutamide (1000 nM): CC1(C)NC(=O)N(c2ccc([N+](=O)[O-])c(C(F)(F)F)c2)C1=O
SNS-032 (10 nM): CC(C)(C)c1cnc(CSc2cnc(NC(=O)C3CCNCC3)s2)o1
CP-690550 (1000 nM): C[C@@H]1CCN(C(=O)CC#N)C[C@@H]1N(C)c1ncnc2[nH]ccc12
tipifarnib (10 nM): Cn1cncc1[C@@](N)(c1ccc(Cl)cc1)c1ccc2c(c1)c(-c1cccc(Cl)c1)cc(=O)n2C
ruxolitinib (1000 nM): N#CC[C@H](C1CCCC1)n1cc(-c2ncnc3[nH]ccc23)cn1
erlotinib (800 nM): C#Cc1cccc(Nc2ncnc3cc(OCCOC)c(OCCOC)cc23)c1
PF-04217903 (1000 nM): OCCn1cc(-c2cnc3nnn(Cc4ccc5ncccc5c4)c3n2)cn1
crizotinib (200 nM): C[C@@H](Oc1cc(-c2cnn(C3CCNCC3)c2)cnc1N)c1c(Cl)ccc(F)c1Cl
palbociclib (40 nM): CC(=O)c1c(C)c2cnc(Nc3ccc(N4CCNCC4)cn3)nc2n(C2CCCC2)c1=O

| # | Partner | A375 |
|---|---|---|
| 1 | OSU-03012 | 13.5 |
| 2 | BMS-536924 | 64.7 |
| 3 | NVP-BEZ235 | 58.1 |
| 4 | SU6656 | 74.8 |
| 5 | ruxolitinib | 96.6 |
| 6 | nilutamide | 71.0 |
| 7 | bexarotene | 94.3 |
| 8 | erlotinib | 49.3 |
| 9 | tamatinib | 68.5 |
| 10 | stibogluconate | 94.5 |
| 11 | midostaurin | 75.0 |
| 12 | SNS-032 | 77.5 |
| 13 | VX-702 | 93.6 |
| 14 | GSK650394 | 71.3 |
| 15 | palbociclib | 59.2 |
| 16 | crizotinib | 68.5 |
| 17 | STA-4783 | 49.1 |
| 18 | AZD7762 | 38.5 |
| 19 | tipifarnib | 64.9 |
| 20 | PF-04217903 | 80.1 |
| 21 | docetaxel | 38.8 |
| 22 | CP-690550 | 71.6 |

Some entries from above, unchanged:

Partner	A375
stibogluconate	94.5
STA-4783	49.1

From a melanoma drug combination screen (doi:10.1371/journal.pone.0140310); values rounded.